Values quoted from earlier work, collected in US20070081967A1, “Revitalizing hair follicles with total parenteral nutrition or hyperalimentation for maximum hair growth” (priority 2005, published 2007).
At least one compound was matched to its structure with a doubt left.

System: alopecia
Details: reported success rate; cited from earlier work

## Nc1cc(N2CCCCC2)nc(N)[n+]1[O-] [Minoxidil, 6-1-piperidinyl-2-4 pyrimidinediamine 2-oxide]
  success rate for treating alopecia: approximately 40%
